Measurements: publication PMC7367685, “Reconstitution reveals two paths of force transmission through the kinetochore” (eLife, 2020)
No constants are given. Whether binding was seen depends on the method and setting. Some results given as binding are weak or reduced against the parent protein; the word gives no strength. Tags and fused reporters may be left off the sequences shown.

Protein sequences, listed by entry. Tags and fused reporters are not part of them.
UniProt P35201: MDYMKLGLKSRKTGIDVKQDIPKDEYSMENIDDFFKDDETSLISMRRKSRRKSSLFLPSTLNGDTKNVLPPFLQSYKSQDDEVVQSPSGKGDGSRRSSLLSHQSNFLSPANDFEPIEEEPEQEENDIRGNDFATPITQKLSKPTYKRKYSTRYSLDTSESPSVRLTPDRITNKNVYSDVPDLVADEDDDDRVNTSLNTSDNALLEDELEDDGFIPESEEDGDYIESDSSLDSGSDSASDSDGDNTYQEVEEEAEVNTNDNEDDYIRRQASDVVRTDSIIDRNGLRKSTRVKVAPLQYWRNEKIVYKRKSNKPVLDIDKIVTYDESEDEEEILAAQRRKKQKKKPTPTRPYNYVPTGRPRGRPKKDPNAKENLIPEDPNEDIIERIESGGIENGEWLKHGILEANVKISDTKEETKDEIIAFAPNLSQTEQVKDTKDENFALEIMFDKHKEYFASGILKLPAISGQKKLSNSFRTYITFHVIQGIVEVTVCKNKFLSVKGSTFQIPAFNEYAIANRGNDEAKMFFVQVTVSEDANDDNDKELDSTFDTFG

Assays:
[1] = target: Mif2-linker-(27-392)MBP (S. cerevisiae) (UniProt P35201); experiment: optical trap bead-microtubule attachment assay (self-assembly and microtubule binding); one His6-tagged subcomplex on anti-His5 polystyrene beads (10 nM on 3.5 pM beads), the other subcomplexes free at 10 nM each; the bead was brought to a single growing microtubule with the laser trap, and a bead whose contact did not persist with the laser off counted as a nonbinder; no external force; BRB80 growth buffer with 1 mM GTP, room temperature; in negative controls one subcomplex was omitted; both purified
[2] = target: Mif2-linker-(27-392)MBP (S. cerevisiae) (UniProt P35201); experiment: optical trap force-ramp rupture assay; same beads and free proteins (10 nM each) as the attachment assay; bead on a growing microtubule tip, 1 pN preload, then a ramp of 0.25 pN/s until detachment; median rupture force of the whole chain; not single-molecule conditions; room temperature; both purified

binding [1]: binds
binding [2]: binds
B1: 2D-MIND complex (FLAG-Nsl1, S240D, S250D-Dsn1, Mtw1, Nnf1) (complex, S. cerevisiae)
chain 1: MSQGQSKKLDVTVEQLRSIYHQFHDILEEKTDLHLPKKEYDDDAVRREVQIQLQEFLLSAMTMASKSLEVVNADTVGKTVKQLIMESQEKYMEPFDLDLNEQVRKMYQEWEDETVKVAQLRQTGPAKINEVYNNSKDEYLAQLDGRIGVLQARMMQQQSADHDDSTDDADDHINWEHIKQDYVASLNELYQTQQDLPKVRYNVEKVKRLMDFLEED
chain 2: MSLEPTQTVSGTPPMLHQRTHKQVYPLRMETIPILESDSKATLQSNEPTQKDEEETEYFENKQSVSNLSPDLKFKRHKNKHIQGFPTLGERLDNLQDIKKAKRVENFNSSAPIADDNHSGDATANATANATANATANVNASAMPAPYMPYYYYYHPMNAPTPAMIPYPGSPMHSIMPNSSLQPFYSQPTAAGGPDMTTPQNISSSQQLLPAPQLFPYGSFHQQQLQQPHYIQRTRERKKDIGSQRGRRLDMLASQANGGSTIISPHKDIPEEDFYTVVGNASFGKNLQIRQLFNWCLMRSLHKLELKAKNQEEEGELEHLTKKSKLESTKAETDYVDPKRLAMVIIKEFVDDLKKDHIAIDWEDEEKYEDEDEEKILDNTENYDDTELRQLFQENDDDDDDDDEVDYSEIQRSRRKFSERRKALPKEPKKLLPNSKNVENTKNLSILTSKVNAIKNEVKEWAVTLDTSRPDLEWQELTSFSSQPLEPLSDTEEPDLAIADVETKLETKVDELRYQSHILNSHSLALNEITNSKVNKLNIETMRKISSETDDDHSQVINPQQLLKGLSLSFSKKLDL
chain 3: MSAPTMRSTSILTEHLGYPPISLVDDIINAVNEIMYKCTAAMEKYLLSKSKIGEEDYGEEIKSGVAKLESLLENSVDKNFDKLELYVLRNVLRIPEEYLDANVFRLENQKDLVIVDENELKKSEEKLREKVNDVELAFKKNEMLLKRVTKVKRLLFTIRGFKQKLNELLKCKDDVQLQKILESLKPIDDTMTLLTDSLRKLYVDSESTSSTEEVEALLQRLKTNGKQNNKDFRTRYIDIRTNNVLRKLGLLGDKEDEKQSAKPDARTQAGDIVSIDIEEPQLDLLDDVL
chain 4: MVNSHGIRYIRLKQVFNRALDQSISKLQSWDKVSSCFPQYVNSKQGAINVANCQRQLTEFWTELCQREFKEIMEERNVEQKLNELDELILEAKERYTDRDQDEVNKGPAIDELSSKELVECHLYSQRMHAIHEIDERLAKVNEMNDQLAQELKDLETQVEVEKNEIGKMYDEYLGSHTDQPANVLLVQSLNDMVLELKENY
notes: Nsl1, S. cerevisiae; Dsn1, S. cerevisiae, with two phosphomimetic substitutions; Mtw1, S. cerevisiae; Nnf1, S. cerevisiae; also called phosphomimetic MIND; pGH62; copies: + + +
